{"sequences": {"note": "Amino acid sequences for entries named in this document (tags omitted). A change or cut given only in a name is not applied to a line headed by its entry.", "UniProt P50052": "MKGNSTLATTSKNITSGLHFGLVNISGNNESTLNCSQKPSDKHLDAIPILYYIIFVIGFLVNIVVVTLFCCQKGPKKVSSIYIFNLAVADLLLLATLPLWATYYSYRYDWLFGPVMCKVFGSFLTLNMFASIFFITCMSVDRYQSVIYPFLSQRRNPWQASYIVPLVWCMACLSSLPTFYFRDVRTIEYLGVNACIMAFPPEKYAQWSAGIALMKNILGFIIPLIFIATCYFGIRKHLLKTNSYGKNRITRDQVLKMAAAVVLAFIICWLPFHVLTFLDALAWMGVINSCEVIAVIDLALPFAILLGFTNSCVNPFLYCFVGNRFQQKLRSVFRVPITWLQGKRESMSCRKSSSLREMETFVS"}, "source": "patent US10308628B2", "about": "“Heterocyclic compounds and methods for their use” (NOVARTIS AG, priority 2015, dated 2019)", "biological_target": "human AT2 receptor (Homo sapiens (Human), UniProt P50052)", "assay": "AT2 receptor binding assay ([125I]CGP 42112A displacement, CHO-K1 cell membranes)", "settings": "estimate determined in a separate saturation binding experiment; read-out: Kd of radioligand", "experimental": "Reagents were purchased from Sigma-Aldrich, unless otherwise specified. Dialyzed fetal bovine serum (FBS) was from Life Technologies (cat. no. 10073772). Valiscreen® human angiotensin AT2 receptor cell line (cat. no. ES-070-C), [^125I]CGP 42112A (cat. no. NEX324025UC) and MicroScint™ 40 (cat. no. 6013641) were purchased from PerkinElmer. CGP 42112A (cat. no. 2569) and PD 123,319 ditrifluoroacetate (cat. no. 1361) were from Tocris Biosciences.\n6. […] Compound Preparation\nCompounds were prepared from 10 mM stock solutions in 100% DMSO. Dilutions were made using electronic multichannel pipettes.\nControls • Total binding (high control) was determined in the absence of unlabelled ligand. A solution of 10% DMSO in assay buffer was prepared. • Non-specific binding (low control) was determined in the presence of a vast excess (10 μM) of PD 123,319. 1 mM stock solution of PD 123,319 in water was diluted […] with 10% DMSO in assay buffer.\n15 μL compound solution was transferred to duplicate wells of assay plate. 5 compounds were tested per plate. 15 μL control solutions were transferred to columns 1 and 12 of assay plate.", "note": "For at least one compound, name, drawing or mass did not settle the structure. Where a SMILES comes first, the peptide text is derived from it. Side-chain parts run from the residue outwards. The star is where a group is joined. Nicotinoyl = O=C(c1cccnc1)*; Cbz = O=C(OCc1ccccc1)*", "data": [{"smiles": "CC[C@H](C)[C@H](NC(=O)[C@@H]1CCCN1C(=O)[C@H](Cc1c[nH]cn1)NC(=O)[C@H](CCCCNC(=O)[C@H](CCCN=C(N)N)NC(=O)OCc1ccccc1)NC(=O)[C@H](Cc1ccc(O)cc1)NC(=O)c1cccnc1)C(=O)O", "note": "[[^125I]CGP 42112A, reference compound] (Nicotinoyl-YK([Arg-Cbz])HPI-OH)", "values": [{"measurement": "Kd", "result": 0.15, "unit": "nM"}]}]}
